# Results published in the supplement of paper PMC9877034.
# Counter-ions that a name gives are not always drawn. Over roughly 1,000 compounds, “cFRET/donor change relative to DMSO, normalised to beta-lapachone positive control (supercomplex I-IV assembly)” has its median near 0.18; the lowest 2% begin near -1. Some of the results follow.
# System: C2C12 (NDUFB8-AcGFP / COX8A-DsRed-Monomer FRET reporter)
# Assay: cFRET/donor change relative to DMSO, normalised to beta-lapachone positive control (supercomplex I-IV assembly) (fraction of beta-lapachone effect); higher = more respiratory supercomplex assembly
# Conditions: 40 µM; 24 h
# Description: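 Cells were treated with 40 uM compound for 24 h and imaged on an IN Cell Analyzer 6000. Corrected FRET was divided by donor signal (cFRET/donor) and measured in two replicate experiments. The score is (mean cFRET/donor of compound - mean DMSO) / (mean beta-lapachone 40 uM - mean DMSO). Compounds flagged for prominent cell death, abnormal morphology or decreased cell number were excluded.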
row,Compound,cFRET/donor change
1,COc1cccc(NC(=O)/C=C/c2ccc(Cl)cc2)c1,0.185
2,CO/N=C(\C(=O)N[C@@H]1C(=O)N2C(C(=O)O)=C(CSc3nc(=O)c(O)nn3C)CS[C@H]12)c1csc(N)n1 [Ceftriaxone sodium],0.564
3,CC(C)(C)NC[C@H](O)COc1nsnc1N1CCOCC1 [S(-)-Timolol maleate],0.246
4,CC(N)=O [Acetamide],0.115
5,CC(N)(C(=O)O)c1ccc(C(=O)O)cc1 (racemic) [(±)-alpha-Methyl-4-carboxyphenylglycine],0.395
6,CC(C)NCC(O)COc1ccc(COCCOC(C)C)cc1 (stereo unspecified) [Bisoprolol hemifumarate salt],0.00652
7,O=C1NC(=O)[C@@]2(CCOc3ccc(F)cc32)N1 [Sorbinil],0.297
8,CCc1cccc(N(C)C(=N)Nc2cccc3ccccc23)c1,0.203
9,CN(C)CCN(Cc1cccs1)c1ccccn1 [Methapyrilene hydrochloride],0.34
10,NC(=O)N1c2ccccc2C=Cc2ccccc21 [Carbamazepine],0.241
11,CCOC(=O)C1=C(C)NC(C)=C(C(=O)OCC)C1c1c(F)c(F)c(F)c(F)c1F [Nemadipine-A],0.483
12,COc1ccccc1CNC1CCCNC1c1ccccc1 (stereo unspecified),0.266
13,O=c1cc(-c2ccc(O)cc2)oc2cc(O)cc(O)c12 [Apigenin],-1.74
14,CCCCCN(CCCOC)C(=O)C(CCC(=O)O)NC(=O)c1ccc(Cl)c(Cl)c1 (stereo unspecified) [Loxiglumide],0.0112
15,C[C@@H](N)[C@H]1CC[C@H](C(=O)Nc2ccncc2)CC1,0.226
16,c1cnc2cc3c(cc2n1)[C@@H]1CNC[C@H]3C1 [Varenicline tartrate],0.22
17,CCn1cc(C(=O)O)c(=O)c2ccc(C)nc21 [Nalidixic acid sodium],0.151
18,Cc1cccc(/C=C/c2ccccc2)n1,0.662
19,C#CCN(C)Cc1ccccc1 [Pargyline hydrochloride],0.215
20,O=c1[nH]c2ccccc2c2ccccc12 [6(5H)-Phenanthridinone],-0.194
21,O=C(CCCN1CC=C(n2c(=O)[nH]c3ccccc32)CC1)c1ccc(F)cc1 [Droperidol],1.08

# Sorted by count of non-hydrogen atoms (low to high): 3 of the compounds above
row,Compound,cFRET/donor change
19,C#CCN(C)Cc1ccccc1 [Pargyline hydrochloride],0.215
13,O=c1cc(-c2ccc(O)cc2)oc2cc(O)cc(O)c12 [Apigenin],-1.74
8,CCc1cccc(N(C)C(=N)Nc2cccc3ccccc23)c1,0.203

# Remaining list, next part.

row,Compound,cFRET/donor change
1,CCN(CC)CCNC(=O)c1cc(S(C)(=O)=O)ccc1OC [Tiapride hydrochloride],-0.134
2,COc1nc(C)nc(Cl)c1NC1=NCCN1 [Moxonidine hydrochloride],0.0702
3,N#CC(C#N)=C(N)/C(C#N)=C/c1ccc(O)cc1 [Tyrphostin AG 112],0.38
4,CCCCS(=O)(=O)N[C@@H](Cc1ccc(OCCCCC2CCNCC2)cc1)C(=O)O [Tirofiban hydrochloride monohydrate],0.174
5,NCCS(=O)(=O)O [Taurine],-0.02
6,COc1cc2nc(N3CCN(C(=O)c4ccco4)CC3)nc(N)c2cc1OC [Prazosin hydrochloride],0.439
7,c1ccc(C(NCCNC(c2ccccc2)c2ccccc2)c2ccccc2)cc1,0.0957
8,COc1ccc(C(=O)NCc2cccnc2)cc1C(=O)NCc1cccnc1 [Picotamide],-0.0166
9,CC(C)c1cccc(C(C)C)c1N1C(=O)c2ccc(O)cc2C1=O,-0.574
10,COc1ccc2[nH]cc(CCNC(C)=O)c2c1 [Melatonin],0.372
11,CN1C2CCCC1CC(NC(=O)c1nn(C)c3ccccc13)C2 (stereo unspecified) [Granisetron hydrochloride],0.333
12,OC(CCN1CCCCC1)(c1ccccc1)C1CC2C=CC1C2 (stereo unspecified) [Biperiden hydrochloride],0.472
13,CCN(Cc1ccncc1)C(=O)C(CO)c1ccccc1 (stereo unspecified) [Tropicamide],-0.179
14,N=C(N)c1ccccc1 [Benzamidine hydrochloride],0.0148
15,CCCCCc1ccc(/C=C/C(=O)Nc2cc(Cl)ccc2C(=O)O)cc1,0.0865
16,COc1cc(OC)c(C=C2C(=O)Nc3ccccc32)c(OC)c1,0.382
17,"O=c1oc(Cl)c(Cl)c2ccccc12 [3,4-Dichloroisocoumarin]",1.94
18,"NCCCCCCCCCCN [1,10-Diaminodecane]",0.307
19,OCCN1CCN(CCCN2c3ccccc3Sc3ccc(Cl)cc32)CC1 [Perphenazine],0.48
20,CN(C)CCc1c[nH]c2ccc(Cn3cncn3)cc12 [Rizatriptan benzoate salt],0.115
